Data source: PubChem BioAssay AID1259308 (NCATS, 2017)
Screen: 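Genes whose loss raises luciferase production in HEK293 cells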 (primary screen). Cell system: human HEK293 embryonic kidney cells stably expressing firefly luciferase (HEK-CMV-Luc2-Hygro). Knock-down reagent: single siRNA against human genes, 0.8 pmol siRNA per well. Time to read-out: 72 h. Read-out: 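Luciferase light (ONE-Glo) measured on one replicate plate set and viability (CellTiter-Glo) on the other, scaled to a negative control siRNA, with robust z-scores and luciferase per cell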. Scale: total luciferase, z-score and total luciferase, % of control: higher = more reporter protein produced. Call rule: 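Active when the median/MAD z-score for overall luciferase is greater than 3; a gene was taken forward for validation with new siRNAs if at least two of its three siRNAs passed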. Meaning of the calls: active = raised luciferase; inactive = no rise.
The deposit covers about 59,000 reagents; this is an unselected part. About 1,510 of them (2.6%) count as active. 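Calls use total luciferase alone and ignore viability, so some active siRNAs may act by altering cell number.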 Entries without a mark were called inactive. The numbers tell different reagents against one gene apart. Further read-outs or replicates are left out here.

How did the screen score TUBB2B (tubulin beta 2B class IIb) #1?
total luciferase, z-score: -1.67; total luciferase, % of control: 48.7

What did the screen give for TUBB2B (tubulin beta 2B class IIb) #2?
total luciferase, z-score: 0.0221; total luciferase, % of control: 82.3

With TUBB2B (tubulin beta 2B class IIb) #3, what was measured?
total luciferase, z-score: -1.23; total luciferase, % of control: 57.3

With HSPA8 (heat shock protein family A (Hsp70) member 8) #1, what does the deposit list?
total luciferase, z-score: 0.244; total luciferase, % of control: 86.7

With HSPA8 (heat shock protein family A (Hsp70) member 8) #2, how do the results read?
total luciferase, z-score: -0.57; total luciferase, % of control: 70.6

For HSPA8 (heat shock protein family A (Hsp70) member 8) #3, what was measured?
total luciferase, z-score: -0.939; total luciferase, % of control: 63.2

What is on record for VIM (vimentin) #1?
total luciferase, z-score: 1.41; total luciferase, % of control: 110

For VIM (vimentin) #2, what does the deposit list?
total luciferase, z-score: 0.567; total luciferase, % of control: 93.2

For VIM (vimentin) #3, what was measured?
total luciferase, z-score: 0.266; total luciferase, % of control: 87.2

With PHLDB1 (pleckstrin homology like domain family B member 1) #1, what was measured?
total luciferase, z-score: 0.951; total luciferase, % of control: 101

What did the screen give for PHLDB1 (pleckstrin homology like domain family B member 1) #2?
total luciferase, z-score: -0.174; total luciferase, % of control: 78.4

For PHLDB1 (pleckstrin homology like domain family B member 1) #3, what does the deposit list?
total luciferase, z-score: 1.91; total luciferase, % of control: 120

For SLC45A4 #1, what was measured?
total luciferase, z-score: -0.0742; total luciferase, % of control: 80.4

For SLC45A4 #2, what was measured?
total luciferase, z-score: 0.255; total luciferase, % of control: 87

With SLC45A4 #3, what was measured?
total luciferase, z-score: 4.75 (active); total luciferase, % of control: 176

What is on record for TRIM63 (tripartite motif containing 63) #1?
total luciferase, z-score: -0.859; total luciferase, % of control: 64.8

How did the screen score TRIM63 (tripartite motif containing 63) #2?
total luciferase, z-score: -0.2; total luciferase, % of control: 77.9

What is on record for TRIM63 (tripartite motif containing 63) #3?
total luciferase, z-score: 0.695; total luciferase, % of control: 95.7

How did the screen score CTBP2 (C-terminal binding protein 2) #1?
total luciferase, z-score: 0.43; total luciferase, % of control: 90.4

For CTBP2 (C-terminal binding protein 2) #2, what does the deposit list?
total luciferase, z-score: -1.29; total luciferase, % of control: 56.2

For CTBP2 (C-terminal binding protein 2) #3, what does the deposit list?
total luciferase, z-score: 0.0565; total luciferase, % of control: 83

With DSCR9 (Down syndrome critical region 9) #1, how do the results read?
total luciferase, z-score: -1.18; total luciferase, % of control: 58.4

With DSCR9 (Down syndrome critical region 9) #2, what was measured?
total luciferase, z-score: -1.91; total luciferase, % of control: 43.9

What is on record for DSCR9 (Down syndrome critical region 9) #3?
total luciferase, z-score: -0.159; total luciferase, % of control: 78.7

Which result is listed for WEE1 (WEE1 G2 checkpoint kinase) #1?
total luciferase, z-score: -2.95; total luciferase, % of control: 23.3

Which result is listed for WEE1 (WEE1 G2 checkpoint kinase) #2?
total luciferase, z-score: 0.14; total luciferase, % of control: 84.7

For WEE1 (WEE1 G2 checkpoint kinase) #3, what does the deposit list?
total luciferase, z-score: -0.252; total luciferase, % of control: 76.9

Which result is listed for LRRC61 (leucine rich repeat containing 61) #1?
total luciferase, z-score: 1.97; total luciferase, % of control: 121

Which result is listed for LRRC61 (leucine rich repeat containing 61) #2?
total luciferase, z-score: -1.87; total luciferase, % of control: 44.8

What is on record for LRRC61 (leucine rich repeat containing 61) #3?
total luciferase, z-score: -1.34; total luciferase, % of control: 55.3

For SEM1 (SEM1 26S proteasome subunit) #1, what was measured?
total luciferase, z-score: 1.09; total luciferase, % of control: 104

How did the screen score SEM1 (SEM1 26S proteasome subunit) #2?
total luciferase, z-score: 0.517; total luciferase, % of control: 92.2

With SEM1 (SEM1 26S proteasome subunit) #3, what does the deposit list?
total luciferase, z-score: 1.02; total luciferase, % of control: 102

For SEM1 (SEM1 26S proteasome subunit) #4, what was measured?
total luciferase, z-score: -0.0302; total luciferase, % of control: 81.3

For SEM1 (SEM1 26S proteasome subunit) #5, what was measured?
total luciferase, z-score: -1.42; total luciferase, % of control: 53.6

Which result is listed for SEM1 (SEM1 26S proteasome subunit) #6?
total luciferase, z-score: 0.593; total luciferase, % of control: 93.7

For SDCBP2 (syndecan binding protein 2) #1, how do the results read?
total luciferase, z-score: -1.51; total luciferase, % of control: 51.9

With SDCBP2 (syndecan binding protein 2) #2, how do the results read?
total luciferase, z-score: -0.152; total luciferase, % of control: 78.9

What did the screen give for SDCBP2 (syndecan binding protein 2) #3?
total luciferase, z-score: 1.28; total luciferase, % of control: 107

What is on record for RUNX3 (RUNX family transcription factor 3) #1?
total luciferase, z-score: 0.38; total luciferase, % of control: 89.4

For RUNX3 (RUNX family transcription factor 3) #2, what was measured?
total luciferase, z-score: 3.5 (active); total luciferase, % of control: 151

For RUNX3 (RUNX family transcription factor 3) #3, what does the deposit list?
total luciferase, z-score: -2.58; total luciferase, % of control: 30.6
